Consider 73 molecules from the supplement of paper PMC4749390.

Counter-ions that a name gives are not always drawn. Some of the results follow. Repeats in this data set agree poorly, so a single value says little.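 JEG3 cells stably express tetracycline-inducible wild-type human LRH-1, a highly sumoylated nuclear receptor. SUMO-sensitive transcripts APOC3 and MUC1, increased by SUMO-deficient LRH-1 or UBC9 knockdown, were quantified by RT-qPCR relative to TBP and DMSO controls. Primary hits had robust Z-scores above +2 or below -2, before toxicity and TBP filtering.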

For this assay, the system named is JEG3 expressing hLRH-1. Nature of the assay: MUC1 transcript change (ddCt vs TBP and DMSO), Z-score over library; higher = higher MUC1 expression. The note with it: 10 µM; time (hr): 24.
In the case of `COC1=CC(=O)C[C@@H](C)[C@]12Oc1c(Cl)c(OC)cc(OC)c1C2=O` [griseofulvin], the “MUC1 transcript change (Z-score)” value is 1.2.
For `CCOc1nc2cccc(C(=O)O)c2n1Cc1ccc(-c2ccccc2-c2nn[nH]n2)cc1` [candesartan], the “MUC1 transcript change (Z-score)” value is 0.24.
For `CCOC(=O)N1CCC(=C2c3ccc(Cl)cc3CCc3cccnc32)CC1` [loratadine], the “MUC1 transcript change (Z-score)” value is -0.549.
In the case of `CC[C@H]1OC(=O)C[C@@H](O)[C@H](C)[C@@H](O[C@@H]2O[C@H](C)[C@@H](O[C@H]3C[C@@](C)(O)[C@@H](O)[C@H](C)O3)[C@H](N(C)C)[C@H]2O)[C@@H](CC=O)C[C@@H](C)C(=O)/C=C/C(C)=C/[C@@H]1CO[C@@H]1O[C@H](C)[C@@H](O)[C@@H](OC)[C@H]1OC` [tylosin tartrate], the “MUC1 transcript change (Z-score)” value was determined as 0.555.
For the molecule `Cn1nnnc1SCC1=C(C(=O)O)N2C(=O)C(NC(=O)C(OC=O)c3ccccc3)C2SC1` (stereo not drawn) [cefamandole nafate], the “MUC1 transcript change (Z-score)” value stood at 0.0511.
Take `CCCCCN(CCCCC)C(=O)C(CCC(=O)O)NC(=O)c1ccc(Cl)c(Cl)c1` (stereo not drawn) [Lorglumide sodium]: the “MUC1 transcript change (Z-score)” value came to 0.931.
Regarding `CC[C@@H]1C(=O)OC[C@@H]1Cc1cncn1C` [(+)-Pilocarpine hydrochloride], the “MUC1 transcript change (Z-score)” value was determined as 0.286.
To `CCS(=O)(=O)CCn1c([N+](=O)[O-])cnc1C` [tinidazole] belongs 0.453; to `COc1ncnc(NS(=O)(=O)c2ccc(N)cc2)c1OC` [sulfadoxine], -1.02; to `CC1=C(/C=C/C(C)=C/C=C/C(C)=C/C=C/C=C(C)/C=C/C=C(C)/C=C/C2=C(C)CCCC2(C)C)C(C)(C)CCC1` [beta-carotene], 0.596.
To `COc1ccc(C(=O)c2ccccc2)c(O)c1` [oxybenzone] belongs -1.17; to `CN1C2CCCC1CC(NC(=O)c1nn(C)c3ccccc13)C2` (stereo not drawn) [granisetron hydrochloride], 0.38.
Take `CCCC1O[C@@H]2C[C@H]3[C@@H]4CCC5=CC(=O)C=C[C@]5(C)[C@H]4[C@@H](O)C[C@]3(C)[C@]2(C(=O)CO)O1` (stereo partly drawn) [budesonide]: the “MUC1 transcript change (Z-score)” value is -0.831.
As for `Clc1ccccc1CN1CCc2sccc2C1` [ticlopidine hydrochloride], the “MUC1 transcript change (Z-score)” value is 0.297.
Take `CN1C2CC[C@H]1C[C@@H](OC(=O)C(O)c1ccccc1)C2` (stereo partly drawn) [homatropine bromide]: the “MUC1 transcript change (Z-score)” value is 0.627.
To `OCC(O)CN1CCN(c2ccccc2)CC1` (stereo not drawn) [dropropizine] belongs 0.332.
With `CN(C/C=C/c1ccccc1)Cc1cccc2ccccc12` [naftifine hydrochloride] the figure was -0.539.
`CC(COc1ccccc1)N(CCCl)Cc1ccccc1` (stereo not drawn) [Phenoxybenzamine hydrochloride]: the “MUC1 transcript change (Z-score)” value is -2.55.
With `CC(=O)[C@H]1CCC2C3C=CC4=CC(=O)CC[C@@]4(C)C3CC[C@@]21C` (stereo partly drawn) [dydrogesterone], the “MUC1 transcript change (Z-score)” value was 0.0836.
With `CN1C(=O)OC(C)(C)C1=O` [trimethadione] the figure was 0.543.
On to `Oc1ccnc(S)n1` [2-thiouracil], for which the “MUC1 transcript change (Z-score)” value turned out to be 0.0696.
To `C[N+](C)(CCOc1ccccc1)Cc1ccccc1` [bephenium hydroxynapthoate] belongs -1.06.
For `COc1cc2ncnc(Nc3ccc(F)c(Cl)c3)c2cc1OCCCN1CCOCC1` [gefitinib], the “MUC1 transcript change (Z-score)” value was determined as 0.317.
To `CC(C)NC[C@H](O)COc1cccc2ccccc12` [dexpropranolol hydrochloride] belongs 0.479; to `CCC(=O)O[C@H]1[C@H](O[C@@H]2[C@@H](C)[C@H](O[C@H]3C[C@@](C)(OC)[C@@H](O)[C@H](C)O3)[C@@H](C)C(=O)O[C@H](CC)[C@@](C)(O)[C@H](O)[C@@H](C)C(=O)[C@H](C)C[C@@]2(C)O)O[C@H](C)C[C@@H]1N(C)C` [erythromycin estolate], 0.901; to `Cc1c(OCC(F)(F)F)ccnc1CS(=O)c1nc2ccccc2[nH]1` (stereo not drawn) [lansoprazole], 0.888.
For the molecule `CCO/C(O)=C1\C(COCCN)=NC(C)=C(C(=O)OC)C1c1ccccc1Cl` (stereo not drawn) [amlodipine besylate], the “MUC1 transcript change (Z-score)” value turned out to be 0.368.
In the case of `NCCNCCNCCN` [trientine hydrochloride], the “MUC1 transcript change (Z-score)” value is -0.177.
As for `COc1ccc(C(=O)CC(=O)c2ccc(C(C)(C)C)cc2)cc1` [avobenzone], the “MUC1 transcript change (Z-score)” value was found to be 0.138.
With `CC[N+](C)(CC)CCOC(=O)C(O)(c1ccccc1)C1CCCCC1` (stereo not drawn) [oxyphenonium bromide], the “MUC1 transcript change (Z-score)” value is -0.0125.
Consider `CC[N+](CC)(CC(=O)Nc1c(C)cccc1C)Cc1ccccc1` [denatonium benzoate], for which the “MUC1 transcript change (Z-score)” value amounted to 1.03.
In the case of `CN1CCc2c(c3ccccc3n2Cc2ccccc2)C1` [mebhydrolin naphthalenesulfonate], the “MUC1 transcript change (Z-score)” value stood at 0.101.
To `CCCCCC(=O)O[C@]1(C(C)=O)CC[C@H]2[C@@H]3CCC4=CC(=O)CC[C@]4(C)[C@H]3CC[C@@]21C` [hydroxyprogesterone caproate] belongs -0.253; to `CC12CCC3C(=CCc4cc(O)ccc43)C1CCC2=O` (stereo not drawn) [equilin], 0.0588.
As to `C[C@@H](O)[C@H]1C(=O)N2C(C(=O)O)=C(S[C@@H]3CN[C@H](C(=O)N(C)C)C3)[C@H](C)[C@H]12` [meropenem], the “MUC1 transcript change (Z-score)” value worked out at 1.09.
With `CN1C(C(=O)Nc2ccccn2)=C(O)c2ccccc2S1(=O)=O` [piroxicam] the figure was 0.905; with `Cc1cc(C)cc(OCC2CNC(=O)O2)c1` (stereo not drawn) [metaxalone], 0.146; with `CCCCc1nc(Cl)c(CO)n1Cc1ccc(-c2ccccc2-c2nn[nH]n2)cc1` [losartan], 0.656.
Turning to `C[C@]12C=CC(=O)C=C1CC[C@H]1[C@@H]3C[C@@H](O)[C@](O)(C(=O)CO)[C@@]3(C)C[C@H](O)[C@@]12F` [triamcinolone], the “MUC1 transcript change (Z-score)” value is -1.36.
For `Cn1c(=O)c2c(ncn2CC(O)CO)n(C)c1=O` (stereo not drawn) [dyphylline], the “MUC1 transcript change (Z-score)” value is -0.779.
Take `C[C@H](N[C@@H](CCc1ccccc1)C(=O)O)C(=O)N1Cc2ccccc2C[C@H]1C(=O)O` [quinaprilat]: the “MUC1 transcript change (Z-score)” value is -0.449.
Regarding `O=C1C(=O)C([C@H]2CC[C@H](c3ccc(Cl)cc3)CC2)=C(O)c2ccccc21` [atovaquone], the “MUC1 transcript change (Z-score)” value stood at 0.132.
Turning to `CN(C)CCOC(c1ccccc1)c1ccccc1` [Diphenhydramine hydrochloride], the “MUC1 transcript change (Z-score)” value is -0.924.
To `O=C(CCNNC(=O)c1ccncc1)NCc1ccccc1` [Nialamide] belongs 0.957.
For the molecule `C[C@@H]1O[C@@H](OC[C@H]2O[C@@H](Oc3c(-c4ccc(OCCO)c(OCCO)c4)oc4cc(OCCO)cc(O)c4c3=O)[C@H](O)[C@@H](O)[C@@H]2O)[C@H](O)[C@H](O)[C@H]1O` [troxerutin], the “MUC1 transcript change (Z-score)” value was -0.631.
With `CCN(CC)CCOC(=O)c1ccc(N)cc1` [procaine hydrochloride], the “MUC1 transcript change (Z-score)” value was determined as 0.105.
As to `O=c1c(Cc2c(O)oc3ccccc3c2=O)c(O)oc2ccccc12` [dicumarol], the “MUC1 transcript change (Z-score)” value was -0.294.
Consider `CC(C)(C)CC(C)(C)c1cc(Cc2cc(C(C)(C)CC(C)(C)C)cc(-n3nc4ccccc4n3)c2O)c(O)c(-n2nc3ccccc3n2)c1` [bisoctrizole], for which the “MUC1 transcript change (Z-score)” value worked out at 0.724.
For `CC(C)CCCC(C)N` (stereo not drawn) [octodrine], the “MUC1 transcript change (Z-score)” value was -1.49.
Take `CC(=O)N[C@@H](CS)C(=O)O` [acetylcysteine]: the “MUC1 transcript change (Z-score)” value came out at 0.448.
`CN1CCN(CCCN2c3ccccc3Sc3ccc(Cl)cc32)CC1` [Prochlorperazine dimaleate]: the “MUC1 transcript change (Z-score)” value is -0.367.
For the molecule `CC(=O)O[C@H]1C[C@@]2(C)[C@@H](C[C@@H](O)[C@H]3[C@@]4(C)CC[C@@H](O)[C@@H](C)[C@@H]4CC[C@@]32C)/C1=C(\CCC=C(C)C)C(=O)O` [fusidic acid], the “MUC1 transcript change (Z-score)” value amounted to 0.755.
As for `CC(C)N1CCN(c2ccc(OC[C@H]3CO[C@](Cn4cncn4)(c4ccc(Cl)cc4Cl)O3)cc2)CC1` [terconazole], the “MUC1 transcript change (Z-score)” value amounted to 0.612.
As to `Cc1cc(-n2c(=O)[nH]c(=O)n(C)c2=O)ccc1Oc1ccc(SC(F)(F)F)cc1` [toltrazuril], the “MUC1 transcript change (Z-score)” value was -0.804.
`Cc1ccnc(NS(=O)(=O)c2ccc(N)cc2)n1` [sulfamerazine]: the “MUC1 transcript change (Z-score)” value stood at 0.46.
With `NCCCC(O)(P(=O)(O)O)P(=O)(O)O` [alendronate sodium], the “MUC1 transcript change (Z-score)” value stood at 0.947.
With `CNC[C@H](O)[C@@H](O)[C@H](O)[C@H](O)CO` [meglumine] the figure was 0.415; with `CNCCC(Oc1ccc(C(F)(F)F)cc1)c1ccccc1` (stereo not drawn) [Fluoxetine hydrochloride], 0.869; with `O=C(CCCCCCC(=O)Nc1ccccc1)NO` [vorinostat], -0.152.
`CCN(CC)CCOC(=O)C1(C2CCCCC2)CCCCC1` [dicyclomine hydrochloride]: the “MUC1 transcript change (Z-score)” value was found to be 0.465.
As for `Cc1ccc(C(=O)C(C)CN2CCCCC2)cc1` (stereo not drawn) [tolperisone hydrochloride], the “MUC1 transcript change (Z-score)” value worked out at 0.219.
With `NC(=O)c1ncn([C@@H]2O[C@H](CO)[C@@H](O)[C@H]2O)n1` [ribavirin], the “MUC1 transcript change (Z-score)” value was -1.38.
To `CCC(=O)O[C@H](CC(=O)O)C[N+](C)(C)C` [levocarnitine propionate hydrochloride] belongs 0.735; to `CC(=O)N[C@@H](CC(=O)O)C(=O)N[C@@H](CCC(=O)O)C(=O)O` [spaglumic acid], 0.663; to `CO[C@@]1(NC(=O)C2SC(=C(C(N)=O)C(=O)O)S2)C(=O)N2C(C(=O)O)=C(CSc3nnnn3C)CS[C@@H]21` (stereo partly drawn) [cefotetan], -0.392.
With `CC/C(=C(\c1ccccc1)c1ccc(OCCN(C)C)cc1)c1ccccc1` [Tamoxifen citrate] the figure was 0.145; with `CC(C(=O)O)c1cccc(CC2CCCC2=O)c1` (stereo not drawn) [loxoprofen], 0.642; with `CCCc1nc(C(C)(C)O)c(C(=O)OCc2oc(=O)oc2C)n1Cc1ccc(-c2ccccc2-c2nn[nH]n2)cc1` [olmesartan medoxomil], 0.346.
With `CC(CN1c2ccccc2Sc2ccccc21)N(C)C` (stereo not drawn) [Promethazine hydrochloride], the “MUC1 transcript change (Z-score)” value is -0.00897.
In the case of `CC1=C(C(=O)O)N2C(=O)[C@@H](NC(=O)C(N)c3ccccc3)[C@H]2SC1` (stereo partly drawn) [cephalexin], the “MUC1 transcript change (Z-score)” value is -1.78.
Consider `CCOc1ccc2nc(S(N)(=O)=O)sc2c1` [ethoxzolamide], for which the “MUC1 transcript change (Z-score)” value was determined as 0.31.
For `CCN(CC)CCOc1ccc2c(c1)C(=O)c1cc(OCCN(CC)CC)ccc1-2` [tilorone], the “MUC1 transcript change (Z-score)” value was -1.06.
Regarding `CC(C)[C@@H]1CC[C@@H](C)C[C@H]1O` [(-)-menthol], the “MUC1 transcript change (Z-score)” value was -0.49.
